Measured values as given in the supplement of paper PMC8728848.
The list shows a part of the results.

What was measured:
Experiment in all cases: glycan array binding signal (z-score within array); higher = stronger binding
Conditions in all cases: glycan notation: IUPAC condensed, linker removed
[1] = target: Neu5Ac(a2-6)Gal(b1-4)GlcNAc(b1-2)Man(a1-3)[Neu5Ac(a2-3)Gal(b1-4)GlcNAc(b1-2)Man(a1-6)]Man(b1-4)GlcNAc(b1-4)GlcNAc
How it was run: (§1)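 The Consortium for Functional Glycomics database supplied 3228 glycan arrays, of which those lacking an available protein sequence were dropped. The binding signal, a within-array Z-score, was averaged across arrays of the same protein sequence and across linkers. Negative scores can be read as non-binding.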

[2] = target: Neu5Ac(a2-6)Gal(b1-4)GlcNAc(b1-2)Man(a1-3)[Neu5Ac(a2-6)Gal(b1-4)GlcNAc(b1-2)Man(a1-6)]Man(b1-4)GlcNAc(b1-4)GlcNAc
How it was run: as §1

[3] = target: Neu5Ac(a2-6)Gal(b1-4)GlcNAc(b1-2)Man(a1-3)[Neu5Ac(a2-6)Gal(b1-4)GlcNAc(b1-2)Man(a1-6)]Man(b1-4)GlcNAc(b1-4)[Fuc(a1-6)]GlcNAc
How it was run: as §1

[4] = target: Neu5Ac(a2-6)Gal(b1-4)GlcNAc(b1-2)Man(a1-6)Man(b1-4)GlcNAc(b1-4)GlcNAc
How it was run: as §1

[5] = target: Neu5Ac(a2-6)Gal(b1-4)GlcNAc(b1-2)Man(a1-6)[Gal(b1-4)GlcNAc(b1-2)Man(a1-3)]Man(b1-4)GlcNAc(b1-4)GlcNAc
How it was run: as §1

[6] = target: Neu5Ac(a2-6)Gal(b1-4)GlcNAc(b1-2)Man(a1-6)[GlcNAc(b1-2)Man(a1-3)]Man(b1-4)GlcNAc(b1-4)GlcNAc
How it was run: as §1

[7] = target: Neu5Ac(a2-6)Gal(b1-4)GlcNAc(b1-2)Man(a1-6)[Man(a1-3)]Man(b1-4)GlcNAc(b1-4)GlcNAc
How it was run: as §1

[8] = target: Neu5Ac(a2-6)Gal(b1-4)GlcNAc(b1-2)[Neu5Ac(a2-6)Gal(b1-4)GlcNAc(b1-4)]Man(a1-3)[GlcNAc(b1-4)][Neu5Ac(a2-6)Gal(b1-4)GlcNAc(b1-2)[Neu5Ac(a2-6)Gal(b1-4)GlcNAc(b1-6)]Man(a1-6)]Man(b1-4)GlcNAc(b1-4)GlcNAc
How it was run: as §1

[9] = target: Neu5Ac(a2-6)Gal(b1-4)GlcNAc(b1-2)[Neu5Ac(a2-6)Gal(b1-4)GlcNAc(b1-4)]Man(a1-3)[GlcNAc(b1-4)][Neu5Ac(a2-6)Gal(b1-4)GlcNAc(b1-4)Man(a1-6)]Man(b1-4)GlcNAc(b1-4)GlcNAc
How it was run: as §1

[10] = target: Neu5Ac(a2-6)Gal(b1-4)GlcNAc(b1-2)[Neu5Ac(a2-6)Gal(b1-4)GlcNAc(b1-6)]Man(a1-6)[Neu5Ac(a2-6)Gal(b1-4)GlcNAc(b1-2)Man(a1-3)][GlcNAc(b1-4)]Man(b1-4)GlcNAc(b1-4)GlcNAc
How it was run: as §1

[11] = target: Neu5Ac(a2-6)Gal(b1-4)GlcNAc(b1-3)Gal(b1-3)GlcNAc
How it was run: as §1

[12] = target: Neu5Ac(a2-6)Gal(b1-4)GlcNAc(b1-3)Gal(b1-4)GlcNAc
How it was run: as §1

[13] = target: Neu5Ac(a2-6)Gal(b1-4)GlcNAc(b1-3)Gal(b1-4)GlcNAc(b1-2)Man(a1-3)[Neu5Ac(a2-6)Gal(b1-4)GlcNAc(b1-3)Gal(b1-4)GlcNAc(b1-2)Man(a1-6)]GalNAc
How it was run: as §1

[14] = target: Neu5Ac(a2-6)Gal(b1-4)GlcNAc(b1-3)Gal(b1-4)GlcNAc(b1-3)Gal(b1-4)GlcNAc
How it was run: as §1

[15] = target: Neu5Ac(a2-6)Gal(b1-4)GlcNAc(b1-3)Gal(b1-4)GlcNAc(b1-3)Gal(b1-4)GlcNAc(b1-2)Man(a1-3)[Neu5Ac(a2-6)Gal(b1-4)GlcNAc(b1-3)Gal(b1-4)GlcNAc(b1-3)Gal(b1-4)GlcNAc(b1-2)Man(a1-6)]GalNAc
How it was run: as §1

[16] = target: Neu5Ac(a2-6)Gal(b1-4)GlcNAc(b1-3)Gal(b1-4)GlcNAc(b1-3)GalNAc
How it was run: as §1

[17] = target: Neu5Ac(a2-6)Gal(b1-4)GlcNAc(b1-3)Gal(b1-4)GlcNAc(b1-3)[Neu5Ac(a2-6)Gal(b1-4)GlcNAc(b1-3)Gal(b1-4)GlcNAc(b1-6)]GalNAc
How it was run: as §1

[18] = target: Neu5Ac(a2-6)Gal(b1-4)GlcNAc(b1-3)Gal(b1-4)GlcNAc(b1-6)[Gal(b1-3)]GalNAc
How it was run: as §1

[19] = target: Neu5Ac(a2-6)Gal(b1-4)GlcNAc(b1-3)Gal(b1-4)[Fuc(a1-3)]GlcNAc(b1-3)Gal(b1-4)[Fuc(a1-3)]GlcNAc
How it was run: as §1

[20] = target: Neu5Ac(a2-6)Gal(b1-4)GlcNAc(b1-3)GalNAc
How it was run: as §1

[21] = target: Neu5Ac(a2-6)Gal(b1-4)GlcNAc(b1-3)[Neu5Ac(a2-6)Gal(b1-4)GlcNAc(b1-6)]GalNAc
How it was run: as §1

[22] = target: Neu5Ac(a2-6)Gal(b1-4)GlcNAc(b1-6)GalNAc
How it was run: as §1

[23] = target: Neu5Ac(a2-6)Gal(b1-4)GlcNAc(b1-6)[Gal(b1-3)GlcNAc(b1-3)]Gal(b1-4)Glc
How it was run: as §1

[24] = target: Neu5Ac(a2-6)Gal(b1-4)GlcNAc(b1-6)[Gal(b1-3)]GalNAc
How it was run: as §1

[25] = target: Neu5Ac(a2-6)Gal(b1-4)GlcNAc6S
How it was run: as §1

Neu5Ac(a2-6)GalNAc = target: Neu5Ac(a2-6)GalNAc
How it was run: as §1

[26] = target: Neu5Ac(a2-6)GalNAc(b1-4)GlcNAc
How it was run: as §1

[27] = target: Neu5Ac(a2-6)GalNAc(b1-4)GlcNAc6S
How it was run: as §1

[28] = target: Neu5Ac(a2-6)GlcNAc(b1-4)GlcNAc
How it was run: as §1

[29] = target: Neu5Ac(a2-6)GlcNAc(b1-4)GlcNAc(b1-4)GlcNAc
How it was run: as §1

B1: Blon2355mut (Bifidobacterium longum) (protein)
chain: MVQEPTLEWHVIPEPTNVEPLVGTCSLPLSGTVVEQRGADDAEAVFARQLVDDIKRVCGGRWQVASGEVQREVTLRTSPSLDDWSYVLEVSPDGVVITGSGFEGVRDGVQTLRQIIRQIGLTIPCMVIRDRPAFSTRGYYLDVTRGRVPSMAWLKSWVDRLCFYKYNQFQLYIEHTFQFNGLSEVWRGADPLTSSDILELDSYCAARGIELVPSVSTFGHHYTALRTRQLRDLGEFPEDADRPFSLIERMTHHTLNITDERSYEFSTSLIDELMPLFRSRKFNICANETFDLGKGRSKQESAKRGVGAMYADFVERLCRHVDDRGHDVMVWADVALEHPEIIDTLPKNITWLNWQYEPNVDDGTTAALADAGATQMVCPAVWCWNALIPRIDDAWNNITRMARHGRAHDVSGMLVTDWGDFGHVNDPRMSVPGMIFGAQQSWNPDAELSEVDMLSRISTIEYGDHTGSVVGALRGASAKGGFSWSDLVTYLELDDGRGGCNTEIVRVMGCLEAYRNDLPQSGQARLADARVSMLRTLRDSILAGRELNGKLDDAAKDITQLLRVAGDPSSAAVWSLAIDGQRLLNRVGLALLAAHGVVRQDEAGIDAAKLADELECWTEQYSRLWHEVSRQSELARIQHVVWRAADVLRSI
- glycan array binding signal (z-score) [1]: 0.424
- glycan array binding signal (z-score) [2]: -0.297
- glycan array binding signal (z-score) [3]: 0.442
- glycan array binding signal (z-score) [4]: -0.305
- glycan array binding signal (z-score) [5]: -0.87
- glycan array binding signal (z-score) [6]: -0.811
- glycan array binding signal (z-score) [7]: 0.143
- glycan array binding signal (z-score) [8]: 0.368
- glycan array binding signal (z-score) [9]: -0.287
- glycan array binding signal (z-score) [10]: -0.656
- glycan array binding signal (z-score) [11]: -0.183
- glycan array binding signal (z-score) [12]: 0.018
- glycan array binding signal (z-score) [13]: 2.02
- glycan array binding signal (z-score) [14]: 0.125
- glycan array binding signal (z-score) [15]: 0.691
- glycan array binding signal (z-score) [16]: -0.221
- glycan array binding signal (z-score) [17]: -0.353
- glycan array binding signal (z-score) [18]: 0.2
- glycan array binding signal (z-score) [19]: -0.399
- glycan array binding signal (z-score) [20]: -0.406
- glycan array binding signal (z-score) [21]: 0.051
- glycan array binding signal (z-score) [22]: 0.159
- glycan array binding signal (z-score) [23]: -1.08
- glycan array binding signal (z-score) [24]: 0.449
- glycan array binding signal (z-score) [25]: -1.3
- glycan array binding signal (z-score) (Neu5Ac(a2-6)GalNAc): 0.95
- glycan array binding signal (z-score) [26]: -1
- glycan array binding signal (z-score) [27]: -0.126
- glycan array binding signal (z-score) [28]: -0.8
- glycan array binding signal (z-score) [29]: -0.932
